Counter-ions that a name gives are not always drawn.
System: Sodium Channel, Site 2
Assay: Sodium channel, site 2 binding assay
Conditions: rat sodium channel site 2 binding

Structure (SMILES) | nH (Hill coefficient)
COc1ccc(CCN(C)CCC[C@](C#N)(c2ccc(OC)c(OC)c2)C(C)C)cc1OC [(R)-(+)-verapamil hydrochloride] | 0.938
COc1ccc(CCN(C)CCC[C@@](C#N)(c2ccc(OC)c(OC)c2)C(C)C)cc1OC [(S)-(−)-verapamil hydrochloride] | 1.1

Reference: patent US20130210911A1, “METHOD AND COMPOSITION FOR TREATING A DISEASE OR CONDITION RELATED TO OREXIN RECEPTOR 1, OREXIN RECEPTOR 2, SOMATOSTATIN RECEPTOR 2 OR DOPAMINE D2L RECEPTOR” (CENTER LABORATORIES, INC., priority 2009, published 2013)
